# Where “and” joins values, the source holds several entries; their conditions need not be identical. Identical values can stand only once. The whole screen tested about 580,000 compounds, of which about 6,100 (1.1%) were called active. The shares of active, inactive and inconclusive entries below differ from those in the screen. The call rests on the fitted dose curve; in most records, active means well fitted inhibition curve with a large enough effect; inconclusive means small, poorly fitted or top-dose-only effect, or another doubt; inactive means no such curve, though single readings can be large or run the other way. Potencies of inconclusive entries are doubtful fits and often do not repeat.
# Sequences of proteins named here, by UniProt entry; tags and fusion partners are left off. A change or cut given only in a name is not applied to a line headed by its entry.
# UniProt P18054: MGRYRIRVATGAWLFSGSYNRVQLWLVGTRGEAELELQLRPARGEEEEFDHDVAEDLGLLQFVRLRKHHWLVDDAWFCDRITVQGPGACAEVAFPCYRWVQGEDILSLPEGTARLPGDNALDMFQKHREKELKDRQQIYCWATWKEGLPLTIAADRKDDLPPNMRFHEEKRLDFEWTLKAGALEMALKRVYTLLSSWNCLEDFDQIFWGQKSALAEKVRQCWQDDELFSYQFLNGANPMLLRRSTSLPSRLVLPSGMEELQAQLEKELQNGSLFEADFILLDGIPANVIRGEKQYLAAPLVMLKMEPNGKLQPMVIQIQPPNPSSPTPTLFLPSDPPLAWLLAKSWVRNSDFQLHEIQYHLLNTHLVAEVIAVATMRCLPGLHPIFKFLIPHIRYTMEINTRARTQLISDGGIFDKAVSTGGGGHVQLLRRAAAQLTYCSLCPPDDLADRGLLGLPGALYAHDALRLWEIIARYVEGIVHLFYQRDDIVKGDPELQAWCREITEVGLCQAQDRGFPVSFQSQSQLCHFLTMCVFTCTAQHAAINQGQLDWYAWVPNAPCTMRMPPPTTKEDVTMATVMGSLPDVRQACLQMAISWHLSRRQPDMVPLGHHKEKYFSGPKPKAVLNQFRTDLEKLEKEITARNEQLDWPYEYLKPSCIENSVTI
# Target: Polyunsaturated fatty acid lipoxygenase ALOX12 (Homo sapiens) (UniProt P18054)
# Test: Primary qHTS assay for inhibitors of human arachidonate 12S-lipoxygenase (ALOX12): Round 2
# Settings: purified 12hLO, xylenol orange hydroperoxide absorbance; activity change, negative = inhibition: at 108 µM (top of the series) unless noted
# Method in brief: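 Purified human 12hLO (150 nM final) in 25 mM Hepes, 0.01% Triton X-100, pH 7.0 was preincubated 15 min at room temperature with compound. Then 40 uM arachidonic acid was added, 30 min. Hydroperoxide was read by Fe-XO absorbance ratio 573/405 nm.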
# On the % scale 0 is the no-effect control and ±100 the full control effect; potency means the concentration at half of the fitted maximal effect.
SMILES,Potency,"activity change, negative = inhibition"
Cc1oc(-c2ccc(F)cc2)cc1-c1nn2c(-c3ccco3)nnc2s1,active: 11.2 µM,–
O=C1NCc2ccccc2CC12CCCCN2Cc1cccc(F)c1F (stereo unspecified),"inconclusive: 12.6 µM [inhibitor, partial curve, poor fit]",–
COCCC(=O)N1CCC(Oc2ccc(C(=O)NCc3nccn3C)cc2)CC1,"inconclusive: 35.5 µM [inhibitor, partial curve, poor fit]",–
CCCCNc1nc(-c2ccc(Cl)cc2)nc2ccccc12,"inconclusive: 39.8 µM [inhibitor, partial curve, poor fit]",–
CCOC(=O)c1ccc(Nc2c(-c3ccc(O)c(OC)c3)nc3nc[nH]n23)cc1,inactive,–
CCN1CCN(S(=O)(=O)c2ccc3c(c2)NC(=O)CS3)CC1,"inconclusive: 89.1 µM [inhibitor, partial curve, poor fit]",–
COC(=O)c1sccc1NC(=O)c1ccc(OC)cc1OC,inactive,–
CCCC1NC(=O)c2cccnc2-n2c1nc1ccccc1c2=O (stereo unspecified),"inconclusive: 44.7 µM [inhibitor, single point]",–
COc1ccc(OC)c(/C=N/c2oc(-c3ccco3)c(-c3ccco3)c2C#N)c1,"inconclusive: 2.82 µM [inhibitor, full curve, poor fit]",–
CCCCc1c(-c2ccccc2F)ncn1CCc1ccccc1OC,"inconclusive: 44.7 µM [inhibitor, partial curve, poor fit]",–
O=C(/C=C/c1ccc(O)cc1)c1ccc(O)cc1O,"inconclusive: 100 µM [inhibitor, single point] and inconclusive: 44.7 µM [inhibitor, partial curve, poor fit]",–
COc1ccc([C@H]2[C@H]3C=CC[C@@H](C)[C@@H]3C(=O)N2Cc2ccccc2)cc1Cl,"inconclusive: 35.5 µM [inhibitor, partial curve, poor fit]",–
Nc1nnc(SCCOc2ccc(Br)cc2)s1,"inconclusive: 50.1 µM [inhibitor, partial curve, poor fit]",–
O=C(Nc1ccccc1)C(Cc1ccccc1)c1ccccc1 (stereo unspecified),"inconclusive: 100 µM [inhibitor, partial curve, poor fit]",–
CCOC(=O)C1CCCN(/C=C2\SC(=S)N(CC)C2=O)C1 (stereo unspecified),"inconclusive: 79.4 µM [inhibitor, partial curve, poor fit]",–
COc1ccc(-c2nccn3cc(C(=O)NCCN4CCCCC4)nc23)cc1,"inconclusive: 39.8 µM [inhibitor, single point]",–
NC(=O)c1cccc(CN2CCC3(C2)CN(C(=O)C2CCCC2)c2ccccc2CO3)c1 (stereo unspecified),–,inactive: 5.42% [at 6.33 µM]
Cc1ccc(C=Nc2ccc(C)c(N=Cc3ccc(C)s3)c2)s1,inactive,–
O=C(O)c1ccc(NC(=S)Nc2ccccc2)cc1,"inconclusive: 100 µM [inhibitor, partial curve, poor fit]",–
Cn1cccc1C(=O)NC1CCCCC1,"inconclusive: 35.5 µM [inhibitor, partial curve, poor fit]",–
O=S1(=O)C[C@H](N2CCN(CC3CC3)CC2)[C@@H](COCc2ccccc2)N1,inactive,–
O=C(N/C=C\c1ccccc1)NCc1ccc(Cl)cc1,inactive,–

SMILES,Potency,"activity change, negative = inhibition"
COc1ccc(-n2c(C)cc3cc(OC(C)=O)ccc32)cc1,"inconclusive: 35.5 µM [inhibitor, single point]",–
Cc1ccnc(NS(=O)(=O)c2ccc(N3C(=O)c4ccccc4C3=O)cc2)n1,inactive,–
CC(C)c1ccc(CCNC(=O)Cn2ncc3ccccc3c2=O)cc1,"inconclusive: 31.6 µM [inhibitor, partial curve, poor fit]",–
CCn1nc(C(=O)NCC(c2cccs2)N2CCCC2)c2ccccc2c1=O (stereo unspecified),"inconclusive: 126 µM [inhibitor, partial curve, poor fit]",–
O=C(/C(=N/N=C/c1ccc(O)c(O)c1)c1ccccc1)c1ccccc1,active: 39.8 µM,–
COc1ccccc1Cc1c(-c2ccc(C#N)cc2)nc2c(C)cc(Br)cn12,"inconclusive: 31.6 µM [inhibitor, partial curve, poor fit]",–
CC(C)(C)[C@@H]1C=C(C(N)=O)O[C@H](OCc2ccc(CO)cc2)C1,"inconclusive: 31.6 µM [inhibitor, single point]",–
COc1cc(C(=O)C(=O)N2CCN(c3ccccc3)CC2)cc2ccccc12,"inconclusive: 89.1 µM [inhibitor, single point]",–
CCCCCCC(=O)N(O)C1CC(=O)N(c2ccc(F)cc2)C1=O (stereo unspecified),"inconclusive: 2 µM [inhibitor, full curve, poor fit]",–
COc1cc(OC)c(NC(=O)C2CCCN(c3ncnc4c3nc3n4CCCCC3)C2)cc1Cl (stereo unspecified),inactive,–
O=C(COc1ccccc1Cl)NCC1(N2CCOCC2)CCCCC1,"inconclusive: 31.6 µM [inhibitor, partial curve, poor fit]",–
COc1ccc2c(c1)C(C)CC(C)(C)N2C(=O)NC1CCCCC1 (stereo unspecified),inactive,–
CCN(CC)C(=O)CSC1=N/C(=C/c2ccco2)C(=O)N1c1ccc(OC)c(Cl)c1,"inconclusive: 50.1 µM [inhibitor, partial curve, poor fit]",–
O=C(NCCC(=O)N1CCN(c2ncccn2)CC1)c1ccc(Br)cc1,inactive,–
CN(C)CCCNC(=O)c1cc(-c2ccc(-c3ccccc3)cc2)nc2ccccc12,"inconclusive: 44.7 µM [inhibitor, partial curve, poor fit]",–
Cc1cc(C)cc(N2CCC(NC(=O)c3ccc(Cl)s3)C2=O)c1 (stereo unspecified),"inconclusive: 100 µM [inhibitor, partial curve, poor fit]",–
CN1/C(=C\C=N\O)C(C)(C)c2ccccc21,inactive,–
N#CCN(C(=O)c1cccs1)C1CC1,"inconclusive: 25.1 µM [inhibitor, full curve, poor fit]",–
N#Cc1ccc(C(=O)N2C[C@@H](Oc3ccccc3)C[C@H]2C(=O)N2CCOCC2)cc1,inactive,–
COC(=O)c1ccc(C)c(NC(=O)C2CC3CCC2C3)c1 (stereo unspecified),"inconclusive: 44.7 µM [inhibitor, single point]",–
Cc1ccc(-c2ccccc2NC(=O)C2C3C=CC(C3)C2C(=O)O)o1 (stereo unspecified),inactive,–
Cc1ccc(C(=O)C(C)OC(=O)C2=COCCO2)cc1C (stereo unspecified),"inconclusive: 50.1 µM [inhibitor, partial curve, poor fit]",–

SMILES,Potency,"activity change, negative = inhibition"
CNc1nc(-c2cc(C)n(-c3cc(C)on3)c2C)cs1,"inconclusive: 56.2 µM [inhibitor, partial curve, poor fit]",–
O=C(O)c1ccccc1S(=O)(=O)Cc1ccc(F)cc1,"inconclusive: 56.2 µM [inhibitor, partial curve, poor fit]",–
CC1C(c2ccccc2)N(C)C(c2ccccc2)CC1(O)c1ccc(F)cc1 (stereo unspecified),"inconclusive: 50.1 µM [inhibitor, partial curve, poor fit]",–
CCN(c1ccc2c(c1)OCO2)S(=O)(=O)c1cc(Br)cc2c1N(C(=O)C1CC1)CC2,"inconclusive: 50.1 µM [inhibitor, partial curve, poor fit]",–
COc1ccc(C(=O)N2CCCN(C)c3ccccc32)cc1,"inconclusive: 56.2 µM [inhibitor, single point]",–
O=Cc1ccc(-c2ccc(Br)cc2Br)o1,inactive,–
O=C(c1cc(-c2ccccc2)on1)N1CCCc2ccccc21,inactive,–
Cc1ccc(Nc2nc(-c3sc(NC(=O)c4ccco4)nc3C)cs2)cc1,inactive,–
O=C(CCc1cc(=O)[nH]o1)N[C@H](c1ccccn1)C1CC(O)C1 (stereo partly specified),"inconclusive: 50.1 µM [inhibitor, partial curve]",–
COc1ccc(Cn2c(C)c(CNCc3cc(OC)c(OC)c(OC)c3)c(C(=O)O)c2C)cc1,"inconclusive: 39.8 µM [inhibitor, full curve, poor fit]",–
Fc1ccc(CNC(=S)NCCc2cccc(Cl)c2)cc1,"inconclusive: 44.7 µM [inhibitor, partial curve, poor fit]",–
N#Cc1nc(COc2ccc(Br)cc2)oc1N1CCCCCC1,"inactive and inconclusive: 1 µM [inhibitor, full curve, poor fit]",–
CCn1c2c(c3cc(Br)ccc31)CCC/C2=N\O,"inconclusive: 79.4 µM [inhibitor, partial curve, poor fit]",–
COc1ccc(Cn2c(C3CCN(C(=O)c4ccc(C#N)cc4)CC3)n[nH]c2=O)cc1,"inconclusive: 39.8 µM [inhibitor, partial curve, poor fit]",–
COc1ccc(-c2cc3cc(F)ccc3cn2)cc1,"inconclusive: 70.8 µM [inhibitor, partial curve, poor fit]",–
COc1ccc(C2(c3ccc(OC)cc3)NC(=O)N(CC(=O)NC3CCCC3)C2=O)cc1,"inconclusive: 126 µM [inhibitor, single point]",–
COc1ccc(N=C2NC(=O)/C(=C/c3ccco3)S2)cc1,"inconclusive: 4.47 µM [inhibitor, full curve, poor fit]",–
CCCC(=O)Nc1ccc(N2CCCCC2)cc1,inactive,–
CC(=O)Nc1ccc(C)c(NC(=O)c2nc(-c3ccccc3)oc2C)c1,"inconclusive: 50.1 µM [inhibitor, single point]",–
COc1ccc(C2C(C#N)=C(N)OC3=C2C(=O)CCC3)cc1OC (stereo unspecified),inactive,–
CC(C)c1ccc(C2/C(=C(/O)c3ccc(F)cc3)C(=O)C(=O)N2CCCN2CCOCC2)cc1 (stereo unspecified),"inconclusive: 126 µM [inhibitor, single point]",–
COc1ccc(C2=NCC(C)n3c2c2ccc(C(F)(F)F)cc2[n+]3[O-])cc1 (stereo unspecified),"inconclusive: 112 µM [inhibitor, single point]",–

# Reference: PubChem BioAssay AID1671190 (National Center for Advancing Translational Sciences (NCATS), 2021)
